Patent US20170112792A1, “ENHANCED ATRA-RELATED COMPOUNDS DERIVED FROM STRUCTURE-ACTIVITY RELATIONSHIPS AND MODELING FOR INHIBITING PIN1” (Beth Israel Deaconess Medical Center, Inc., priority 2014, published 2017)
Some of these results come from one statement about several compounds together. Some ranges recur; such a range may be that of the whole group of compounds.

Protein sequences, listed by entry. Tags and fused reporters are not part of them.
UniProt Q13526, whole entry: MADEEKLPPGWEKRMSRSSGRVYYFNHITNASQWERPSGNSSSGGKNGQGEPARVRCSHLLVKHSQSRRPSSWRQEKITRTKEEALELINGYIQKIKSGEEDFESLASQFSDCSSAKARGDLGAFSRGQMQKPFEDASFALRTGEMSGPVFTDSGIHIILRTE

Molecular target: GST-Pin1 (Homo sapiens, UniProt Q13526)
Test: fluorescence polarization (FP) pTide competition assay / FP-HTS

Compound: COc1cc(C)c(/C=C/C(C)=C/C=C/C(C)=C/C(=O)O)c(C)c1C [acitretin]
- relative inhibition of Pin1, relative to ATRA: 25-64%
